Values from PubChem BioAssay AID504774 (Drosophila RNAi Screening Center, 2011)
Purpose: 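Knock-downs that shift viability of MMS-exposed cells relative to untreated ones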 (primary screen). Cells: Drosophila Kc167 cells. Knock-down reagent: long dsRNA against Drosophila genes, about 0.25 µg dsRNA per well. Duration: about 6 days: 3 days knock-down, then 3 days with or without MMS. Treatment: methyl methanesulphonate 0.004% (w/v) for 3 days after knock-down. Read-out: 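ATP-dependent luminescence as a measure of live cells in MMS-exposed wells, quantile normalised within each plate, with replicate values also given as a mean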. Direction: mean viability with MMS and viability with MMS: higher = more surviving cells after MMS.
The screen tested about 23,000 reagents; shown is an unselected part of those that have a named target and a result. 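Values are quantile-normalised luminescence on an arbitrary scale; higher means more cells surviving MMS.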 Reagents against one gene are numbered here. Further read-outs or replicates are left out here.

HIPP1 (GeneID 40302) — mean viability with MMS: 3.42e6; viability with MMS, replicate 1: 3.92e6
CG5790 (GeneID 35095) — mean viability with MMS: 3.52e6; viability with MMS, replicate 1: 3.77e6
vito (GeneID 326214) — mean viability with MMS: 3.37e6; viability with MMS, replicate 1: 3.88e6
Brms1 (GeneID 32243) — mean viability with MMS: 3.44e6; viability with MMS, replicate 1: 3.98e6
Nufip (GeneID 40043) — mean viability with MMS: 3.45e6; viability with MMS, replicate 1: 3.90e6

Sorted by “mean viability with MMS” (highest first): 2 of the entries above
Brms1 (GeneID 32243) — mean viability with MMS: 3.44e6; viability with MMS, replicate 1: 3.98e6
vito (GeneID 326214) — mean viability with MMS: 3.37e6; viability with MMS, replicate 1: 3.88e6

More results follow.
Spn28B (GeneID 34035) — mean viability with MMS: 3.58e6; viability with MMS, replicate 1: 4.08e6
sphe (GeneID 32648) — mean viability with MMS: 3.68e6; viability with MMS, replicate 1: 4.30e6
Mp (GeneID 38769) #1 — mean viability with MMS: 4.07e6; viability with MMS, replicate 1: 4.75e6
Mp (GeneID 38769) #2 — mean viability with MMS: 3.60e6; viability with MMS, replicate 1: 4.02e6
Mp (GeneID 38769) #3 — mean viability with MMS: 3.60e6; viability with MMS, replicate 1: 4.23e6
Axs (GeneID 32645) — mean viability with MMS: 3.72e6; viability with MMS, replicate 1: 4.20e6
CG11722 (GeneID 41227) — mean viability with MMS: 3.48e6; viability with MMS, replicate 1: 3.89e6
Mkrn1 (GeneID 44131) — mean viability with MMS: 3.67e6; viability with MMS, replicate 1: 3.99e6
Pop4 (GeneID 38889) — mean viability with MMS: 3.38e6; viability with MMS, replicate 1: 3.82e6
